Data source: PubChem BioAssay AID743458 (Peter MacCallum Cancer Centre, 2014)
Purpose: 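Identify genes whose loss lifts vorinostat resistance in colon cancer cells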 (follow-up of hits). Cells: human HCT116-VR colon cancer cells made resistant to vorinostat. Reagents: single siRNA or pool against human genes, 25 nM per single siRNA. Duration: about 72 h after transfection, including 24 h of drug. Conditions: vorinostat, 2.5 µM final, for 24 h. Measured: 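Cell viability by fluorescence and apoptosis by caspase 3/7 luminescence under vorinostat, background-corrected, averaged across two plate copies and given as fold change versus mock transfection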. Reading the numbers: viability relative to mock: higher = more living cells than mock; caspase activity relative to mock: higher = more apoptosis than mock. Hit rule: 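An siRNA counts as active if classed as reduced viability or as caspase activation, otherwise inactive; a hit class needed wells that remained healthy in the absence of drug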.
The whole screen tested about 1,800 reagents; shown is a part drawn at random. 732 of them (41%) count as active. 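Calls are per siRNA reagent; a gene was deemed confirmed only if most of its four siRNAs scored.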 Reagents against one gene are numbered here.

Target gene | reagent no. | viability relative to mock | caspase activity relative to mock | viability hit class | caspase hit class | activity call
CCDC88A (coiled-coil and HOOK domain protein 88A) | 1 | 0.66 | 1.06 | no change | no change | inactive
CCDC88A (coiled-coil and HOOK domain protein 88A) | 2 | 0.9 | 1.06 | no change | no change | inactive
CCDC88A (coiled-coil and HOOK domain protein 88A) | 3 | 0.82 | 1.15 | no change | no change | inactive
CCDC88A (coiled-coil and HOOK domain protein 88A) | 4 | 0.86 | 1.67 | no change | no change | inactive
IFNW1 (interferon omega 1) | 1 | 0.94 | 1.4 | no change | no change | inactive
IFNW1 (interferon omega 1) | 2 | 0.26 | 4.12 | no change | no change | inactive
IFNW1 (interferon omega 1) | 3 | 0.86 | 0.94 | no change | no change | inactive
IFNW1 (interferon omega 1) | 4 | 0.75 | 1.34 | no change | no change | inactive
RNF181 (ring finger protein 181) | 1 | 0.98 | 1.58 | no change | no change | inactive
RNF181 (ring finger protein 181) | 2 | 0.92 | 1.66 | no change | no change | inactive
RNF181 (ring finger protein 181) | 3 | 0.94 | 1.08 | no change | no change | inactive
RNF181 (ring finger protein 181) | 4 | 0.8 | 1.25 | no change | no change | inactive
CWC22 (CWC22 spliceosome associated protein) | 1 | 0.49 | 2.56 | reduced viability | no change | active
CWC22 (CWC22 spliceosome associated protein) | 2 | 0.38 | 1.44 | reduced viability | no change | active
CWC22 (CWC22 spliceosome associated protein) | 3 | 0.44 | 2.1 | reduced viability | no change | active
CWC22 (CWC22 spliceosome associated protein) | 4 | 0.34 | 2.37 | reduced viability | no change | active
FADS1 (fatty acid desaturase 1) | 1 | 0.68 | 3.01 | no change | caspase activation | active
FADS1 (fatty acid desaturase 1) | 2 | 0.67 | 0.99 | no change | no change | inactive
FADS1 (fatty acid desaturase 1) | 3 | 0.78 | 0.66 | no change | no change | inactive
FADS1 (fatty acid desaturase 1) | 4 | 0.42 | 4.92 | reduced viability | caspase activation | active
LRRC14 (leucine rich repeat containing 14) | 1 | 0.92 | 3.48 | no change | caspase activation | active
LRRC14 (leucine rich repeat containing 14) | 2 | 0.4 | 1.76 | reduced viability | no change | active
LRRC14 (leucine rich repeat containing 14) | 3 | 0.84 | 2.84 | no change | caspase activation | active
LRRC14 (leucine rich repeat containing 14) | 4 | 0.22 | 3.31 | no change | no change | inactive
NEK7 (NIMA related kinase 7) | 1 | 0.96 | 1.32 | no change | no change | inactive
NEK7 (NIMA related kinase 7) | 2 | 0.81 | 2.37 | no change | no change | inactive
NEK7 (NIMA related kinase 7) | 3 | 0.48 | 5.29 | reduced viability | caspase activation | active
NEK7 (NIMA related kinase 7) | 4 | 0.98 | 1.11 | no change | no change | inactive
PSMA7 (proteasome 20S subunit alpha 7) | 1 | 0.3 | 4.16 | reduced viability | caspase activation | active
PSMA7 (proteasome 20S subunit alpha 7) | 2 | 0.36 | 4.05 | reduced viability | caspase activation | active
PSMA7 (proteasome 20S subunit alpha 7) | 3 | 0.23 | 2.89 | reduced viability | caspase activation | active
PSMA7 (proteasome 20S subunit alpha 7) | 4 | 0.39 | 5.21 | reduced viability | caspase activation | active
PSMD4 (proteasome 26S subunit ubiquitin receptor, non-ATPase 4) | 1 | 0.23 | 3.63 | reduced viability | caspase activation | active
PSMD4 (proteasome 26S subunit ubiquitin receptor, non-ATPase 4) | 2 | 0.84 | 1.82 | no change | no change | inactive
PSMD4 (proteasome 26S subunit ubiquitin receptor, non-ATPase 4) | 3 | 0.6 | 4.97 | no change | caspase activation | active
PSMD4 (proteasome 26S subunit ubiquitin receptor, non-ATPase 4) | 4 | 0.58 | 5.25 | no change | caspase activation | active
CDC25C (cell division cycle 25C) | 1 | 0.3 | 1.38 | reduced viability | no change | active
CDC25C (cell division cycle 25C) | 2 | 0.94 | 0.89 | no change | no change | inactive
CDC25C (cell division cycle 25C) | 3 | 0.87 | 0.86 | no change | no change | inactive
CDC25C (cell division cycle 25C) | 4 | 0.74 | 1.25 | no change | no change | inactive
CCNK (cyclin K) | 1 | 0.68 | 2.19 | no change | no change | inactive
CCNK (cyclin K) | 2 | 0.53 | 3.58 | reduced viability | caspase activation | active
CCNK (cyclin K) | 3 | 0.5 | 5.8 | reduced viability | caspase activation | active
CCNK (cyclin K) | 4 | 0.87 | 1.3 | no change | no change | inactive
ACO2 (aconitase 2) | 1 | 0.91 | 0.94 | no change | no change | inactive
ACO2 (aconitase 2) | 2 | 0.99 | 1.3 | no change | no change | inactive
ACO2 (aconitase 2) | 3 | 0.64 | 1.15 | no change | no change | inactive
ACO2 (aconitase 2) | 4 | 0.48 | 0.72 | reduced viability | no change | active

Targets listed so far whose target name starts with R or r (4):
Target gene | reagent no. | viability relative to mock | caspase activity relative to mock | viability hit class | caspase hit class | activity call
RNF181 (ring finger protein 181) | 1 | 0.98 | 1.58 | no change | no change | inactive
RNF181 (ring finger protein 181) | 2 | 0.92 | 1.66 | no change | no change | inactive
RNF181 (ring finger protein 181) | 3 | 0.94 | 1.08 | no change | no change | inactive
RNF181 (ring finger protein 181) | 4 | 0.8 | 1.25 | no change | no change | inactive

The listing continues:
Target gene | reagent no. | viability relative to mock | caspase activity relative to mock | viability hit class | caspase hit class | activity call
RBPMS2 (RNA binding protein, mRNA processing factor 2) | 1 | 0.84 | 1.45 | no change | no change | inactive
RBPMS2 (RNA binding protein, mRNA processing factor 2) | 2 | 1.07 | 1.51 | no change | no change | inactive
RBPMS2 (RNA binding protein, mRNA processing factor 2) | 3 | 0.4 | 7 | reduced viability | caspase activation | active
RBPMS2 (RNA binding protein, mRNA processing factor 2) | 4 | 0.94 | 1.1 | no change | no change | inactive
SC5D (sterol-C5-desaturase) | 1 | 0.94 | 1.43 | no change | no change | inactive
SC5D (sterol-C5-desaturase) | 2 | 0.54 | 3.45 | reduced viability | caspase activation | active
SC5D (sterol-C5-desaturase) | 3 | 0.51 | 3.2 | reduced viability | caspase activation | active
SC5D (sterol-C5-desaturase) | 4 | 0.69 | 0.84 | no change | no change | inactive
COL9A1 (collagen type IX alpha 1 chain) | 1 | 0.36 | 5.3 | no change | no change | inactive
COL9A1 (collagen type IX alpha 1 chain) | 2 | 0.94 | 2.17 | no change | no change | inactive
COL9A1 (collagen type IX alpha 1 chain) | 3 | 0.86 | 1.06 | no change | no change | inactive
COL9A1 (collagen type IX alpha 1 chain) | 4 | 0.9 | 2.05 | no change | no change | inactive
C1orf52 (chromosome 1 open reading frame 52) | 1 | 0.7 | 2.84 | no change | caspase activation | active
C1orf52 (chromosome 1 open reading frame 52) | 2 | 0.72 | 2.21 | no change | no change | inactive
C1orf52 (chromosome 1 open reading frame 52) | 3 | 0.3 | 3.27 | reduced viability | caspase activation | active
C1orf52 (chromosome 1 open reading frame 52) | 4 | 0.74 | 1.68 | no change | no change | inactive
SMG1 | 1 | 0.62 | 2.42 | no change | no change | inactive
SMG1 | 2 | 0.43 | 1.81 | reduced viability | no change | active
SMG1 | 3 | 0.41 | 5.32 | no change | no change | inactive
SMG1 | 4 | 0.77 | 3.67 | no change | caspase activation | active
CHCHD10 (coiled-coil-helix-coiled-coil-helix domain containing 10) | 1 | 0.47 | 5.39 | reduced viability | caspase activation | active
CHCHD10 (coiled-coil-helix-coiled-coil-helix domain containing 10) | 2 | 0.57 | 2.28 | no change | no change | inactive
CHCHD10 (coiled-coil-helix-coiled-coil-helix domain containing 10) | 3 | 0.62 | 1.97 | no change | no change | inactive
CHCHD10 (coiled-coil-helix-coiled-coil-helix domain containing 10) | 4 | 0.74 | 2.1 | no change | no change | inactive
ZFAND5 (zinc finger AN1-type containing 5) | 1 | 0.94 | 1.19 | no change | no change | inactive
ZFAND5 (zinc finger AN1-type containing 5) | 2 | 1.12 | 1.39 | no change | no change | inactive
ZFAND5 (zinc finger AN1-type containing 5) | 3 | 0.97 | 1.19 | no change | no change | inactive
ZFAND5 (zinc finger AN1-type containing 5) | 4 | 1.01 | 1.08 | no change | no change | inactive
